Laboratory results from the supplement of paper PMC8256030.
Where “and” joins values, the source holds several entries; their conditions need not be identical. Equal values may be shown once. This is one part of the list. Repeats in this data set agree poorly, so a single value says little.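 HEK293T cells were given each compound shortly before transfection with a reporter in which red mCherry is followed by the SARS-CoV-2 frameshift element and then GFP in the −1 frame, so GFP appears only after frameshifting.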

Assays:
[1] = tested on: SARS-CoV-2 -1 PRF reporter mCherry-FSE-GFP(-1); assay: mCherry (red) intensity as percent of control; higher = higher upstream reporter expression; settings: 10 µM; 24 h; HEK293T
[2] = tested on: SARS-CoV-2 -1 PRF reporter mCherry-FSE-GFP(-1); assay: percent effect, decrease of GFP/mCherry ratio (-1 PRF reporter) relative to controls; higher = stronger frameshift inhibition; settings: 10 µM; 24 h; HEK293T

SMILES | mCherry [1] | percent effect [2]
CCCC1O[C@@H]2C[C@H]3[C@@H]4CCC5=CC(=O)C=C[C@]5(C)[C@H]4[C@@H](O)C[C@]3(C)[C@]2(C(=O)CO)O1 (stereo partly specified) | 126% | -10.3%
CC(C)(Oc1ccc(CCNC(=O)c2ccc(Cl)cc2)cc1)C(=O)O [bezafibrate] | 126% and 120% | 0.792% and -1.56%
C#C[C@]1(O)CC[C@H]2[C@@H]3CCC4=CCCC[C@@H]4[C@H]3C(=C)C[C@@]21CC [desogestrel] | 105% | -9.18%
CC(C)c1nnc(NS(=O)(=O)c2ccc(N)cc2)s1 [glyprothiazol] | 88.1% | -1.34%
N=C(N)c1ccc(N=NNc2ccc(C(=N)N)cc2)cc1 | 119% | -3.05%
N#Cc1ccc2[nH]cc(CCCCN3CCN(c4ccc5oc(C(N)=O)cc5c4)CC3)c2c1 | 84.8% | -1.18%
COc1cc(O)cc(O)c1 [flamenol] | 71.3% | -5.66%
CCOC(=O)C1=C(C)NC(CN(C)C)=C(C(=O)OCC)C1c1ccccc1/C=C/C(=O)OC(C)(C)C (stereo unspecified) [teludipine] | 57.3% | 3.87%
CC#CCC(C)[C@H](O)/C=C/[C@@H]1[C@H]2c3cccc(CCCC(=O)O)c3O[C@H]2C[C@H]1O (mixture of isomers) [beraprost] | 94.5% | -2.84%
O=C(O)c1cn(-c2ccc(F)cc2)c2cc(N3CCNCC3)c(F)cc2c1=O [sarafloxacin] | 127% and 104% | 3.8% and 0.921%
C=CC1=C(C(=O)O)N2C(=O)[C@@H](NC(=O)/C(=N\O)c3csc(N)n3)[C@H]2SC1 | 105% | -1.2%
CCCCCC(C)N (stereo unspecified) [tuaminoheptane] | 112% | -2.9%
CCCCCCCCCCCCCCCC(=O)OC[C@H](O)[C@H]1OC(=O)C(O)=C1O | 90.5% | -2.13%
C[C@H](N[C@@H](CCc1ccccc1)C(=O)O)C(=O)N1C(=O)N(C)C[C@H]1C(=O)O [imidaprilat] | 81.3% | -7.84%
CC(C)c1ccc2oc3nc(N)c(C(=O)O)cc3c(=O)c2c1 [amlexanox] | 117% | 1.49%
N[C@@H](Cc1cc(I)c(Oc2cc(I)c(O)c(I)c2)c(I)c1)C(=O)O [L-thyroxine] | 99% | -1.19%
Cc1nc(NS(=O)(=O)c2ccc(N)cc2)oc1C [sulfamoxole] | 85% | -1.57%
O=C(O)C1CCSCN1 (stereo unspecified) [omonasteine] | 103% | -0.417%
CC[C@H]1OC(=O)[C@H](C)[C@@H](O[C@H]2C[C@@](C)(OC)[C@@H](O)[C@H](C)O2)[C@H](C)[C@@H](O[C@@H]2O[C@H](C)C[C@H](N(C)C)[C@H]2O)[C@](C)(O)C[C@@H](C)[C@@H]2N[C@@H](COCCOC)O[C@H]([C@H]2C)[C@]1(C)O [dirithromycin] | 93% and 103% and 101% | -4.04% and -0.0626% and -7.35%
C#C[C@]1(O)CC[C@H]2[C@@H]3CCC4=CC(=NO)CC[C@@H]4[C@H]3CC[C@@]21CC (mixture of isomers) [Norelgestromin] | 109% | -2.56%
CO[C@H]1C[C@@H]2CC[C@@H](C)[C@@](O)(O2)C(=O)C(=O)N2CCCC[C@H]2C(=O)O[C@H]([C@H](C)C[C@@H]2CC[C@@H](O)[C@H](OC)C2)CC(=O)[C@H](C)/C=C(\C)[C@@H](O)[C@@H](OC)C(=O)[C@H](C)C[C@H](C)/C=C/C=C/C=C/1C [Rapamycin] | 105% | -2.12%
C[C@]12CC[C@H](O)CC1=CC[C@@H]1[C@@H]2CC[C@]2(C)C(=O)CC[C@@H]12 [prasterone] | 85.7% and 94.4% | -0.558% and -6.02%

Some of these compounds in order of length of the SMILES, ascending:
SMILES | mCherry [1] | percent effect [2]
COc1cc(O)cc(O)c1 [flamenol] | 71.3% | -5.66%
O=C(O)c1cn(-c2ccc(F)cc2)c2cc(N3CCNCC3)c(F)cc2c1=O [sarafloxacin] | 127% and 104% | 3.8% and 0.921%
C#C[C@]1(O)CC[C@H]2[C@@H]3CCC4=CCCC[C@@H]4[C@H]3C(=C)C[C@@]21CC [desogestrel] | 105% | -9.18%

The listing continues:

SMILES | mCherry [1] | percent effect [2]
CC1CNc2c(cccc2S(=O)(=O)N[C@@H](CCCNC(=N)N)C(=O)N2CC[C@@H](C)C[C@@H]2C(=O)O)C1 (stereo partly specified) [Argatroban] | 102% and 103% | -2.26% and -1.45%
FC(F)(F)COCC(F)(F)F | 108% | -4.11%
[O-][S+](c1cc(Cl)cc(Cl)c1O)c1cc(Cl)cc(Cl)c1O [bithionoloxide] | 84.9% | -2.91%
CNCCCN1c2ccccc2CCc2ccccc21 [desipramine] | 125% | -6.95%
Cc1cc(NS(=O)(=O)c2ccc(N)cc2)no1 [Sulfamethoxazole] | 41.2% | -3.14%
NS(=O)(=O)c1cc2c(cc1Cl)N=CNS2(=O)=O | 78.1% | -1.04%
Cc1ncsc1CCCCl [cloprothiazole] | 81.7% | -1.14%
CCCCC(CC)COC(=O)c1ccccc1O (stereo unspecified) [octisalate] | 112% | -8.32%
Cc1cc(Nc2ncc(Cl)c(Nc3ccccc3S(=O)(=O)C(C)C)n2)c(OC(C)C)cc1C1CCNCC1 [Ceritinib] | 80.1% | 0.117%
N#Cc1c(N(CC(=O)O)CC(=O)O)sc(C(=O)O)c1CC(=O)O [ranelic acid] | 75.9% | -1.07%
NC(=O)C1c2ccccc2CCc2ccccc21 [cyheptamide] | 79.2% | -5.18%
CCCCC(CC)COC(=O)CC(C(=O)OCC(CC)CCCC)S(=O)(=O)O (stereo unspecified) [docusate sodium] | 14.2% | -14%
CCCOC(=O)c1ccc(N)cc1 [risocaine] | 98.4% | -3.67%
CCOC(=O)C1=C[C@]2(CC)CCCN3CCc4c(n1c1ccccc41)[C@@H]32 [vinpocetine] | 95.1% | -6.9%
OC[C@H]1O[C@@H](O[C@@H]2[C@@H](CO)OC(O)(CO)[C@H]2O)[C@H](O)[C@@H](O)[C@H]1O (mixture of isomers) [lactulose] | 118% | -0.623%
COc1cc2nc(N3CCN(C(=O)C4CCCO4)CC3)nc(N)c2cc1OC (stereo unspecified) | 129% | 1.21%
C=CCOC(Cn1ccnc1)c1ccc(Cl)cc1Cl (stereo unspecified) [enilconazole] | 93.4% | 1.38%
N[C@@H](COP(=O)(O)O)C(=O)O [dexfosfoserine] | 85.2% | -0.0731%
Nc1nc(NC2CC2)c2ncn([C@H]3C=C[C@@H](CO)C3)c2n1 [abacavir] | 82% and 100% | -0.365% and -0.78%
CCCn1c(=O)[nH]c(=O)c2nc[nH]c21 [enprofylline] | 78.9% | -5.4%
CC1CCC(NC(=O)N(CCCl)N=O)CC1 (stereo unspecified) [semustine] | 100% | 0.384%
